Measured values reported in the supplement of paper PMC11348887.
Where a name gives a salt, the structure may show the parent alone. This is one part of the list. Most values lie at the level of the controls, where differences are scatter.

Legend:
Conditions in all cases: 5 µM; treatment: days 7-14 after plating, readout day 21
[1] = tested on: hPSC-derived cortical neurons (WA09); test: nucleus area z-score vs screen plate; higher = larger nuclei (more mature)
[2] = tested on: hPSC-derived cortical neurons (WA09); test: total neurite length per nucleus (MAP2) z-score; higher = more neurite growth
[3] = tested on: hPSC-derived cortical neurons (WA09); test: nucleus roundness z-score vs screen plate; higher = rounder nuclei (more mature)
[4] = tested on: hPSC-derived cortical neurons (WA09); test: KCl-induced FOS+/EGR-1+ double-positive nuclei fraction z-score (KCl minus unstimulated); higher = stronger activity-induced IEG response

| Structure (SMILES) | nucleus area z-score [1] | total neurite length per nucleus (z-score) [2] | nucleus roundness z-score [3] | KCl-induced FOS+/EGR-1+ double-positive nuclei fraction z-score [4] |
| --- | --- | --- | --- | --- |
| CCCCCCCCc1ccc(CCC(N)(CO)CO)cc1 [Fingolimod (FTY720) HCl] | -13.1 | -3.9 | -11.7 | -0.236 |
| O=C(O)c1ccccc1C(=O)Nc1ccc(-c2ccccc2)cc1 [Kartogenin] | -0.11 | 0.463 | 0.0353 | 0.631 |
| CO[C@H]1/C=C/O[C@@]2(C)Oc3c(C)c(O)c4c(c3C2=O)C2=NC3(CCN(CC(C)C)CC3)NC2=C(NC(=O)/C(C)=C\C=C\[C@H](C)[C@H](O)[C@@H](C)[C@@H](O)[C@@H](C)[C@H](OC(C)=O)[C@@H]1C)C4=O [Rifabutin] | 0.335 | 1.22 | 1.39 | 1.32 |
| Cc1csc(-c2nnc(Nc3ccc(Oc4ncccc4-c4ccnc(N)n4)cc3)c3ccccc23)c1 | 1.43 | 0.379 | 0.354 | -0.276 |
| CC1(C)O[C@@H]2C[C@H]3[C@@H]4C[C@H](F)C5=CC(=O)C=C[C@]5(C)[C@@]4(F)[C@@H](O)C[C@]3(C)[C@]2(C(=O)CO)O1 [Fluocinolone Acetonide] | 1.04 | 0.903 | 0.486 | 0.775 |
| COc1ccc(C2=N[C@@H](c3ccc(Cl)cc3)[C@@H](c3ccc(Cl)cc3)N2C(=O)N2CCNC(=O)C2)c(OC(C)C)c1 [Nutlin-3] | -0.462 | 0.131 | 0.103 | 0.292 |
| CN(CC(=O)N(Cc1ccc(C2CCCCC2)cc1)c1ccc(C(=O)O)cc1)S(=O)(=O)c1c(F)c(F)c(F)c(F)c1F | -5.22 | -3.54 | -2.85 | -0.331 |
| CCn1cc(C(=O)O)c(=O)c2cc(F)c(N3CCNCC3)cc21 [Norfloxacin] | 0.494 | 0.131 | -0.323 | 0.513 |
| CN1CCC[C@@H]1CCO[C@](C)(c1ccccc1)c1ccc(Cl)cc1 [Clemastine Fumarate] | -1.92 | -1.82 | -0.928 | -0.455 |
| CC(C)C[C@H](NC(=O)[C@H](CCc1ccccc1)NC(=O)CN1CCOCC1)C(=O)N[C@@H](Cc1ccccc1)C(=O)N[C@@H](CC(C)C)C(=O)[C@@]1(C)CO1 [Carfilzomib (PR-171)] | -18.9 | -5.76 | -6.83 | -1.06 |
| N#CCNC(=O)c1ccc(-c2ccnc(Nc3ccc(N4CCOCC4)cc3)n2)cc1 | -0.352 | 0.376 | 1.21 | 1.26 |
| CC(=O)C1=C(O)C=C2Oc3c(C(C)=O)c(O)c(C)c(O)c3C2(C)C1=O (single isomer, unassigned; (+)) [(+)-Usniacin] | -0.112 | 0.0528 | 1.22 | 0.334 |
| O=C(NOCC(O)CO)c1cc(Br)c(F)c(F)c1Nc1ccc(I)cc1F (stereo unspecified) | -0.759 | 0.272 | -0.331 | -0.652 |
| COc1ccc(C(Cl)=C(c2ccc(OC)cc2)c2ccc(OC)cc2)cc1 [Chlorotrianisene] | 1.29 | -0.582 | -0.369 | -0.0486 |
| CNCCC(Oc1ccc(C(F)(F)F)cc1)c1ccccc1 (stereo unspecified) [Fluoxetine HCl] | -0.283 | -1.11 | -1.47 | -1.48 |
| O=C(NC[C@H](O)CN1CCc2ccccc2C1)c1cc(NC2COC2)ncn1 | 0.202 | -0.166 | 0.219 | 4.16 |
| CCCCC(F)(F)[C@@]1(O)CC[C@H]2[C@@H](CC(=O)[C@@H]2CCCCCCC(=O)O)O1 [Lubiprostone] | -1.66 | 0.493 | -0.463 | -0.45 |
| COc1ncnc(NS(=O)(=O)c2ccc(N)cc2)c1OC [Sulfadoxine] | -0.905 | 0.757 | -0.115 | 0.593 |
| O=C(NC(NC(=S)Nc1ccc(F)c([N+](=O)[O-])c1)C(Cl)(Cl)Cl)C(c1ccccc1)c1ccccc1 (stereo unspecified) | 2.5 | -0.554 | 0.0376 | 0.00891 |
| C[C@]12C=CC(=O)C=C1CC[C@@H]1[C@@H]2C(=O)C[C@@]2(C)[C@H]1CC[C@]2(O)C(=O)CO [Prednisone] | 1.05 | -0.376 | 0.0342 | -0.238 |
| CCCCCCCCCCCCCCCCO [1-Hexadecanol] | 1.27 | 0.519 | -0.447 | -0.34 |
| CN(C)S(=O)(=O)c1ccc2c(c1)/C(=C/c1cc3c([nH]1)CCCC3)C(=O)N2 | 0.0819 | 0.238 | 0.334 | 0.74 |
| COc1ccc2[nH]c([S+]([O-])Cc3ncc(C)c(OC)c3C)nc2n1 (stereo unspecified) [Tenatoprazole] | 0.454 | -0.409 | -0.123 | 0.611 |
| Nc1nc(NC2CC2)c2ncn([C@H]3C=C[C@@H](CO)C3)c2n1 [Abacavir sulfate] | 0.864 | -0.757 | -0.925 | -1.05 |

Rewritten with tabs: entries from further up.
Structure (SMILES)	nucleus area z-score [1]	total neurite length per nucleus (z-score) [2]	nucleus roundness z-score [3]	KCl-induced FOS+/EGR-1+ double-positive nuclei fraction z-score [4]
CC(C)C[C@H](NC(=O)[C@H](CCc1ccccc1)NC(=O)CN1CCOCC1)C(=O)N[C@@H](Cc1ccccc1)C(=O)N[C@@H](CC(C)C)C(=O)[C@@]1(C)CO1 [Carfilzomib (PR-171)]	-18.9	-5.76	-6.83	-1.06
N#CCNC(=O)c1ccc(-c2ccnc(Nc3ccc(N4CCOCC4)cc3)n2)cc1	-0.352	0.376	1.21	1.26
